Source: paper PMC5932058
Results are given in words; binding and its absence hold for the method and conditions named. In cells and extracts the contact can be indirect. Some binding calls cover weakened binding; strength is not graded here. Tags and fused reporters may be left off the sequences shown.

T1: HA-Fzo1 (S. cerevisiae) (UniProt P38297)
T1 sequence: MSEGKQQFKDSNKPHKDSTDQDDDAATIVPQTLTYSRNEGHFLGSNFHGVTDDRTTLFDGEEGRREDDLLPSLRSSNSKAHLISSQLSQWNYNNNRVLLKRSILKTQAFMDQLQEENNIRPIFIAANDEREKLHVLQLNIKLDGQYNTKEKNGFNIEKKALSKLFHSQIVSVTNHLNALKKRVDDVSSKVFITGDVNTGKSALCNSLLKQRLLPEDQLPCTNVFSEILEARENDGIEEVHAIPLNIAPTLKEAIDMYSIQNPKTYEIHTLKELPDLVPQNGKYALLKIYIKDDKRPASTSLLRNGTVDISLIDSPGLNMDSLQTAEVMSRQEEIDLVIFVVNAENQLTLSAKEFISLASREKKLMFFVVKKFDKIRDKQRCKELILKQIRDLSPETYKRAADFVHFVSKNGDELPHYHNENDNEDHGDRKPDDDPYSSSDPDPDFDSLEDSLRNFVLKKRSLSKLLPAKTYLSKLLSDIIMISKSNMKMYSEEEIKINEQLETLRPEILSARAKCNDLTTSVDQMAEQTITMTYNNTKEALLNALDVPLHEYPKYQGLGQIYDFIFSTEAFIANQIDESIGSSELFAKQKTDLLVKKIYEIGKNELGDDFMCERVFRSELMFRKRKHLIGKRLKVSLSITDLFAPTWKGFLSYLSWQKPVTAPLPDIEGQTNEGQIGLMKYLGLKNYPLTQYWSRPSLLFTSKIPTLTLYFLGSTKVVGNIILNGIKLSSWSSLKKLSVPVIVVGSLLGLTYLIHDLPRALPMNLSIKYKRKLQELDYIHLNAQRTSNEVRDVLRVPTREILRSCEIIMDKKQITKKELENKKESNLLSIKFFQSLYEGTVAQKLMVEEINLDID

B1: GFP-Pex14 (protein, UniProt P53112 1-341)
chain: MSDVVSKDRKALFDSAVSFLKDESIKDAPLLKKIEFLKSKGLTEKEIEIAMKEPKKDGIVGDEVSKKIGSTENRASQDMYLYEAMPPTLPHRDWKDYFVMATATAGLLYGAYEVTRRYVIPNILPEAKSKLEGDKKEIDDQFSKIDTVLNAIEAEQAEFRKKESETLKELSDTIAELKQALVQTTRSREKIEDEFRIVKLEVVNMQNTIDKFVSDNDGMQELNNIQKEMESLKSLMNNRMESGNAQDNRLFSISPNGIPGIDTIPSASEILAKMGMQEESDKEKENGSDANKDDNAVPAWKKAREQTIDSNASIPEWQKNTAANEISVPDWQNGQVEDSIP
B2: GFP-Pex19 (protein, UniProt Q07418 1-342)
chain: MNENEYDNFDDLDDLLDEDPTKLDEAEPDDVQAKGSVYNDSENKEKNAESKDSDGVQVANESEEDPELKEMMVDLQNEFANLMKNNGNENNVKTEDFNKLISALEEAAKVPHQQMEQGCSSLKSNSTDKGTVNGSNPGFKNIVSNTLDRLKENGNKVDTSLAEETKESQRSGQNNNIDDILSQLLDQMVASGGKESAENQFDLKDGEMDDAITKILDQMTSKEVLYEPMKEMRSEFGVWFQENGENEEHKEKIGTYKRQFNIVDEIVNIYELKDYDELKHKDRVTELLDELEQLGDSPIRSANSPLKHGNEEEELMKMLEIDGNDPNLGNLDKELTDGCKQQ

Target: T1, HA-Fzo1 (S. cerevisiae)
Assay: co-IP; HA-Fzo1 immunoprecipitated with HA-coupled beads (2 h, 4 °C) from the crude membrane fraction of yeast cells solubilized with 0.2% NG310 in TBS; beads washed 3x with 0.2% NG310 in TBS; eluate blotted with HA- and GFP-specific antibodies; empty vector as control

| Binder | binding |
| --- | --- |
| B1 | binds |
| B2 | binds |
